Assay results published in patent publication US20190062438A1 (CSL, published 2019).
No constants are given. Whether binding was seen depends on the method and setting. Some results given as binding are weak or reduced against the parent protein; the word gives no strength.

Chains of the proteins cited; added tags and fusions are not shown. Residues count along the entry.
UniProt P05113, residues 20-134: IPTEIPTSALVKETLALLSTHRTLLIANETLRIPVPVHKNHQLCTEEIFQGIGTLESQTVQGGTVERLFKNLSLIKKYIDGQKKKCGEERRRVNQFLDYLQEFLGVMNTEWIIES

Target: T1, human CD131 (human, UniProt P32927 17-897)
T1 sequence: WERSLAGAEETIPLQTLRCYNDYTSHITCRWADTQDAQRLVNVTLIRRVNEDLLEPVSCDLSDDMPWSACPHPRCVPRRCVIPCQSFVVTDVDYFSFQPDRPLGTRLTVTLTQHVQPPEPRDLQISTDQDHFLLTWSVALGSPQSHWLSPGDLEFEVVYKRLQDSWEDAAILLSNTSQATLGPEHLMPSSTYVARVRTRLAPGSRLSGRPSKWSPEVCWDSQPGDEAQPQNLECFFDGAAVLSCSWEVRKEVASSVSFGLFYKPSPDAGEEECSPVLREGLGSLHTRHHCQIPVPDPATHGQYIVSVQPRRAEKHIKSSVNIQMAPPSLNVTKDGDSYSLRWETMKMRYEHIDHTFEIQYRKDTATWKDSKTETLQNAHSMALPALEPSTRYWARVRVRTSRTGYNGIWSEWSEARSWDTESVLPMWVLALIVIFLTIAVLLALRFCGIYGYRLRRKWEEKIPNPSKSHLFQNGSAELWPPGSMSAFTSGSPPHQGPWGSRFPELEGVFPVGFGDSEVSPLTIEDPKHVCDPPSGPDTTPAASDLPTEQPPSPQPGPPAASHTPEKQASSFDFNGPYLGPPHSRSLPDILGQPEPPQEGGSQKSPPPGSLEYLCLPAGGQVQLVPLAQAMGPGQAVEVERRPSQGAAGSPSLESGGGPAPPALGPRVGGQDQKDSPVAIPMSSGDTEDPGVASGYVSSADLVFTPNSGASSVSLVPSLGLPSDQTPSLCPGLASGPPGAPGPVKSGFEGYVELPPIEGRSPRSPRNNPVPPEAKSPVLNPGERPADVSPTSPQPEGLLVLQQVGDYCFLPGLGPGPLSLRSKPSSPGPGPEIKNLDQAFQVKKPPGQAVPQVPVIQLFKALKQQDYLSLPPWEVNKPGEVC
Experiment: competition binding on TF-1 cells: cells pre-incubated with the cytokine, then equilibrated with 85 pM radio-iodinated 9A2-VR24.29; cell-bound c.p.m.
Description: Each point is the mean of duplicate determinations of cell-bound radioiodinated cytokine and error bars represent the standard deviation.
Cytokines and antibodies were radio-iodinated using Pierce Pre-Coated Iodination tubes (Thermo Scientific) according to the manufacturer's instructions. MAb binding to cells expressing hβc was determined by incubating 1-2×10⁶ cells with radio-iodinated mAb at a range of concentrations at 23° C. for 1-2 hours with gentle mixing. Cell suspensions were then centrifuged through fetal calf serum (FCS) and radioactivity associated with the cells pellets was assessed by counting in a Wizard² 2470 Automatic Gamma Counter (Perkin Elmer, Rowville, VIC, Australia). Non-specific binding was assessed for each radio-iodinated mAb in the presence of at least a 500-fold excess of unlabeled mAb. […] Competition binding assays were performed essentially as previously described (41). Briefly 1-2×10⁶ cells were incubated with mAb or cytokine competitor at a range of concentrations at 4° C. for 45 minutes with gentle mixing. Radio-iodinated cytokine or mAb was then added and the mixture incubated at 23° C. for a further 1-2 hours with gentle mixing. Cell suspensions were then centrifuged through FCS and radioactivity associated with the cells pellets assessed by counting.

binding: binds
Substance: recombinant human IL-5 (from UniProt P05113 20-134) (ligand)
